Assay results taken from patent publication US20160009772A1, “CELL PENETRATING PEPTIDES WHICH BIND IRF5” (priority 2012, published 2016).
No constants are given. Whether binding was seen depends on the method and setting. Some results given as binding are weak or reduced against the parent protein; the word gives no strength.

Chains of the proteins cited; added tags and fusions are not shown. Lines headed by an entry give the natural chain unless they say otherwise; changes in a name come on top. A line that says so, or that is headed by a name, gives the form on record, which may keep a tag or linker.
IRF5(222-467, S430D), S430D phosphomimetic construct of IRF5 (222-467) (Q13568, form named): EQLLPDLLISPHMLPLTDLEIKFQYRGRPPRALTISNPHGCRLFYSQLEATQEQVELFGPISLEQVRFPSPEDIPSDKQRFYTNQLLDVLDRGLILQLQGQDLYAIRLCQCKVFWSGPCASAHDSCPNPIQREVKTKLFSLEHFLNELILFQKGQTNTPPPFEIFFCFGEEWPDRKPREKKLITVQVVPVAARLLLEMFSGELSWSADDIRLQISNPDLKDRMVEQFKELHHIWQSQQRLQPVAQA

Target: IRF5(222-467, S430D), S430D phosphomimetic construct of IRF5 (222-467) (human) (UniProt Q13568)
Test: TR-FRET dimer assay, 200 nM biotin tag IRF5 with increasing His tag IRF5 (FIG. 1B); Kd not given

- binding: binds
Substance: IRF5(222-467, S430D), S430D phosphomimetic construct of IRF5 (222-467) (from UniProt Q13568 222-467)
